# Experimental data as given in PubChem BioAssay AID248 (DTP/NCI, 2004).
# The list shows only some results of the screen, not a fair sample: it is rich in T/C values a quarter to a half above the control, in often repeated tests (any T/C) and in doses without a T/C. Other doses and runs of a compound stand elsewhere. T/C gives the treated animals as a percentage of the vehicle group. Some doses have a count of surviving animals in place of a T/C: the source holds a T/C of zero for them, seemingly a mark for toxic or unscored doses. Some survivor counts are full or nearly so, which does not show that the dose was tolerated: survival well below the control is almost never listed, so the zero probably covers shortened survival too. Counts of survivors are from the toxicity check (mostly the fifth day) where no day follows; animals may have died later. Schedules are NCI's codes, read here as Q, the interval in days (D) or hours (H), X, the number of doses. Some schedules carry Z or #; the key to these is not given. Additions like (4×) say how often a value occurs here. Some entries were tested several times; the values are given in rising order. Where survival is the endpoint, this PubChem deposit counts one and a half times the control or more as active, and values a quarter to a half above the control carry no call in these data; other NCI protocols may use other cut-offs. Some T/C values carry the count of animals alive at the toxicity check (mostly the fifth day); where none is given, no animal had died by that day.
# Test system: L1210 leukemia ip in BDF1 mice, survival T/C
# Assay: NCI In Vivo Anticancer Drug Screen. Data for tumor model L1210 Leukemia (intraperitoneal) in B6D2F1 (BDF1) mice
# Details: T/C endpoint: mean survival time, higher T/C = longer survival
# [1] = dose: 400.0 mg/kg/injection, schedule: Q01DX001 (ip), vehicle: other
# [2] = dose: 200.0 mg/kg/injection, schedule: Q01DX009 (ip), vehicle: saline
# [3] = dose: 400.0 mg/kg/injection, schedule: Q04DX002 (ip), vehicle: saline with Tween-80
# [4] = dose: 200.0 mg/kg/injection, schedule: Q01DX001 (ip), vehicle: saline
# [5] = dose: 400.0 mg/kg/injection, schedule: Q01DX001 (ip), vehicle: saline
# [6] = dose: 400.0 mg/kg/injection, schedule: Q01DX009 (ip), vehicle: Klucel (hydroxypropylcellulose) (HPC)
structure (smiles),measurement,setting,value
CN=C(N)c1ccc(NC(=O)c2ccc(C(=O)Nc3ccc(C(N)=NC)cc3)c(N)c2)cc1,T/C,"dose: 1.0 mg/kg/injection, schedule: Q01DX Z (ip), vehicle: carboxymethylcellulose (CMC)",138 % of control
same,T/C,"dose: 8.0 mg/kg/injection, schedule: Q01DX Z (ip), vehicle: carboxymethylcellulose (CMC)",140 % of control [5 of 6 alive]
same,survivor count,"dose: 16.0 mg/kg/injection, schedule: Q01DX Z (ip), vehicle: carboxymethylcellulose (CMC)",4 of 6
same,T/C,"dose: 22.5 mg/kg/injection, schedule: Q01DX001 (sc), vehicle: water",130 % of control
same,survivor count,"dose: 32.0 mg/kg/injection, schedule: Q01DX Z (ip), vehicle: carboxymethylcellulose (CMC)",1 of 6
same,survivor count,"dose: 64.0 mg/kg/injection, schedule: Q01DX Z (ip), vehicle: carboxymethylcellulose (CMC)",0 of 6
CCN(CC)C(=S)[S][Sb]([S]C(=S)N(CC)CC)[c]1ccccc1,survivor count,[1],2 of 4
CCC[As](=O)(O)Cc1ccccc1C,survivor count,"dose: 6.25 mg/kg/injection, schedule: Q04DX002 (ip), vehicle: saline with Tween-80",3 of 6
same,survivor count,"dose: 12.5 mg/kg/injection, schedule: Q01DX009 (ip), vehicle: saline with Tween-80",1 of 3
same,survivor count,"dose: 25.0 mg/kg/injection, schedule: Q01DX001 (ip), vehicle: saline with Tween-80",3 of 6
same,survivor count,"dose: 25.0 mg/kg/injection, schedule: Q01DX009 (ip), vehicle: saline with Tween-80",0 of 3
same,survivor count,"dose: 25.0 mg/kg/injection, schedule: Q04DX002 (ip), vehicle: saline with Tween-80",4 of 6
same,survivor count,"dose: 50.0 mg/kg/injection, schedule: Q01DX001 (ip), vehicle: saline with Tween-80",0 of 6
same,survivor count,"dose: 50.0 mg/kg/injection, schedule: Q01DX009 (ip), vehicle: saline with Tween-80",0 of 3
same,survivor count,"dose: 100.0 mg/kg/injection, schedule: Q01DX009 (ip), vehicle: saline with Tween-80",0 of 3 and 0 of 6
same,survivor count,"dose: 200.0 mg/kg/injection, schedule: Q01DX009 (ip), vehicle: saline with Tween-80",0 of 6
same,survivor count,"dose: 400.0 mg/kg/injection, schedule: Q01DX009 (ip), vehicle: saline with Tween-80",0 of 6
COc1ncnc2c1c(C#N)cn2C1OC(CO)C(O)C1O (centres undefined),T/C,"dose: 6.25 mg/kg/injection, schedule: Q01DX009 (ip), vehicle: saline",134 % of control
same,T/C,"dose: 12.5 mg/kg/injection, schedule: Q01DX009 (ip), vehicle: saline",129 and 137 % of control [4 of 6 alive]
same,T/C,"dose: 25.0 mg/kg/injection, schedule: Q01DX009 (ip), vehicle: saline",133 and 143 % of control
same,T/C,"dose: 100.0 mg/kg/injection, schedule: Q01DX005 (ip), vehicle: saline",125 % of control
same,survivor count,[2],1 of 6
N#CC(Cl)(Cl)C(N)=O,survivor count,"dose: 25.0 mg/kg/injection, schedule: Q04DX002 (ip), vehicle: saline",2 of 6
same,survivor count,"dose: 50.0 mg/kg/injection, schedule: Q04DX002 (ip), vehicle: saline",0 of 6
same,survivor count,"dose: 100.0 mg/kg/injection, schedule: Q04DX002 (ip), vehicle: saline with Tween-80",0 of 3
same,survivor count,"dose: 200.0 mg/kg/injection, schedule: Q04DX002 (ip), vehicle: saline with Tween-80",0 of 3
same,survivor count,[3],0 of 3
Cc1ccc2ccccc2c1,T/C,"dose: 400.0 mg/kg/injection, schedule: Q04DX002 (ip), vehicle: Klucel (hydroxypropylcellulose) (HPC)",128 % of control
CCCCCCCC[N+](CC)(CC)CCOC(=O)C(C1CCCC1)C1CCCC1,survivor count,"dose: 5.0 mg/kg/injection, schedule: Q01DX009 (ip), vehicle: saline",2 of 6
same,survivor count,"dose: 10.0 mg/kg/injection, schedule: Q04DX003 (ip), vehicle: saline",5 of 6
CCCCCCN(C)Cc1ccc(OCCOc2ccc(CN(C)CCCCCC)cc2)cc1,survivor count,"dose: 100.0 mg/kg/injection, schedule: Q01DX001 (ip), vehicle: saline",0 of 4
same,survivor count,[4],0 of 4
same,survivor count,[5],0 of 4
Cc1cc(C)n(C(=O)Nc2ccccc2)n1,survivor count,[3],1 of 3
N#CC(C#N)=Cc1ccsc1,survivor count,"dose: 50.0 mg/kg/injection, schedule: Q04DX003 (ip), vehicle: Klucel (hydroxypropylcellulose) (HPC)",1 of 6
same,survivor count,"dose: 100.0 mg/kg/injection, schedule: Q04DX003 (ip), vehicle: Klucel (hydroxypropylcellulose) (HPC)",0 of 6
same,survivor count,"dose: 200.0 mg/kg/injection, schedule: Q04DX003 (ip), vehicle: Klucel (hydroxypropylcellulose) (HPC)",0 of 6
same,survivor count,"dose: 400.0 mg/kg/injection, schedule: Q04DX003 (ip), vehicle: Klucel (hydroxypropylcellulose) (HPC)",0 of 6
N=c1c2cnn(C3OC(CO)C(O)C3O)c2ncn1N (centres undefined),survivor count,"dose: 25.0 mg/kg/injection, schedule: Q01DX009 (ip), vehicle: water",6 of 6
same,survivor count,"dose: 50.0 mg/kg/injection, schedule: Q01DX009 (ip), vehicle: water",6 of 6
CC(C)(C)O[Si](C)(C)CCl,survivor count,"dose: 50.0 mg/kg/injection, schedule: Q01DX001 (ip), vehicle: carboxymethylcellulose (CMC)",0 of 4
CC1(C)N=C(N)N=C(N)N1c1cccc(OCCOc2ccc([N+](=O)[O-])cc2)c1,survivor count,[5],0 of 6
CCN1CCC(CN2c3ccccc3Sc3ccccc32)C1 (centres undefined),survivor count,"dose: 100.0 mg/kg/injection, schedule: Q01DX009 (ip), vehicle: saline",0 of 6
same,survivor count,[4],0 of 6
same,survivor count,[5],0 of 6
c1ccc(C(c2ccccc2)[P+](c2ccccc2)(c2ccccc2)c2ccccc2)cc1,T/C,"dose: 3.0 mg/kg/injection, schedule: Q01DX005 (ip), vehicle: gum acacia",126 and 129 % of control
same,survivor count,"dose: 6.0 mg/kg/injection, schedule: Q01DX005 (ip), vehicle: gum acacia",3 of 3
same,survivor count,"dose: 6.0 mg/kg/injection, schedule: Q01DX009 (ip), vehicle: gum acacia",3 of 3
same,survivor count,"dose: 12.5 mg/kg/injection, schedule: Q01DX005 (ip), vehicle: gum acacia",3 of 3
same,survivor count,"dose: 25.0 mg/kg/injection, schedule: Q01DX005 (ip), vehicle: gum acacia",0 of 3
same,survivor count,"dose: 25.0 mg/kg/injection, schedule: Q04DX002 (ip), vehicle: gum acacia",3 of 3
same,survivor count,"dose: 50.0 mg/kg/injection, schedule: Q04DX002 (ip), vehicle: gum acacia",0 of 3
C/C(=N\NC(N)=O)C(F)(F)F,survivor count,"dose: 480.0 mg/kg/injection, schedule: Q01DX Z (ip), vehicle: carboxymethylcellulose (CMC)",1 of 6
same,survivor count,"dose: 960.0 mg/kg/injection, schedule: Q01DX Z (oral), vehicle: carboxymethylcellulose (CMC)",0 of 6
OCCNc1nc2ccc(Br)cc2c2ccccc12,survivor count,"dose: 200.0 mg/kg/injection, schedule: Q01DX009 (ip), vehicle: Klucel (hydroxypropylcellulose) (HPC)",6 of 6
same,survivor count,[6],2 of 6
CC/C=C/C1(C(C)C)C(=O)NC(=O)NC1=O,survivor count,"dose: 300.0 mg/kg/injection, schedule: Q01DX001 (ip), vehicle: saline",0 of 6
CC1CCOS(=O)O1 (centres undefined),survivor count,"dose: 160.0 mg/kg/injection, schedule: Q01DX010 (ip), vehicle: saline",2 of 6 and 3 of 6
same,survivor count,"dose: 162.0 mg/kg/injection, schedule: Q01DX Z (ip), vehicle: carboxymethylcellulose (CMC)",6 of 6
same,survivor count,[4],1 of 4
same,survivor count,"dose: 324.0 mg/kg/injection, schedule: Q01DX Z (ip), vehicle: carboxymethylcellulose (CMC)",1 of 6
same,survivor count,[5],0 of 4 (2×)
c1ccc(C[N+](Cc2ccccc2)=C2CCCCC2)cc1,survivor count,[2],1 of 6
same,survivor count,"dose: 400.0 mg/kg/injection, schedule: Q04DX003 (ip), vehicle: saline",0 of 6
NC(N)=NC(N)=NCCCc1ccccc1,survivor count,"dose: 100.0 mg/kg/injection, schedule: Q01DX001 (ip), vehicle: other",2 of 6
same,survivor count,"dose: 200.0 mg/kg/injection, schedule: Q01DX001 (ip), vehicle: other",1 of 6
same,survivor count,[1],1 of 6
same,survivor count,[5],0 of 6
CCCNC(=O)Oc1ccccc1C(N)=O,survivor count,[6],0 of 6
